Results from PMC4915522.
Results are given in words; binding and its absence hold for the method and conditions named.

Biological target: T1, GUN1 (GENOMES UNCOUPLED 1), chloroplast-localized pentatricopeptide repeat (PPR) protein (Arabidopsis thaliana) (UniProt Q9SIC9)
T1 sequence: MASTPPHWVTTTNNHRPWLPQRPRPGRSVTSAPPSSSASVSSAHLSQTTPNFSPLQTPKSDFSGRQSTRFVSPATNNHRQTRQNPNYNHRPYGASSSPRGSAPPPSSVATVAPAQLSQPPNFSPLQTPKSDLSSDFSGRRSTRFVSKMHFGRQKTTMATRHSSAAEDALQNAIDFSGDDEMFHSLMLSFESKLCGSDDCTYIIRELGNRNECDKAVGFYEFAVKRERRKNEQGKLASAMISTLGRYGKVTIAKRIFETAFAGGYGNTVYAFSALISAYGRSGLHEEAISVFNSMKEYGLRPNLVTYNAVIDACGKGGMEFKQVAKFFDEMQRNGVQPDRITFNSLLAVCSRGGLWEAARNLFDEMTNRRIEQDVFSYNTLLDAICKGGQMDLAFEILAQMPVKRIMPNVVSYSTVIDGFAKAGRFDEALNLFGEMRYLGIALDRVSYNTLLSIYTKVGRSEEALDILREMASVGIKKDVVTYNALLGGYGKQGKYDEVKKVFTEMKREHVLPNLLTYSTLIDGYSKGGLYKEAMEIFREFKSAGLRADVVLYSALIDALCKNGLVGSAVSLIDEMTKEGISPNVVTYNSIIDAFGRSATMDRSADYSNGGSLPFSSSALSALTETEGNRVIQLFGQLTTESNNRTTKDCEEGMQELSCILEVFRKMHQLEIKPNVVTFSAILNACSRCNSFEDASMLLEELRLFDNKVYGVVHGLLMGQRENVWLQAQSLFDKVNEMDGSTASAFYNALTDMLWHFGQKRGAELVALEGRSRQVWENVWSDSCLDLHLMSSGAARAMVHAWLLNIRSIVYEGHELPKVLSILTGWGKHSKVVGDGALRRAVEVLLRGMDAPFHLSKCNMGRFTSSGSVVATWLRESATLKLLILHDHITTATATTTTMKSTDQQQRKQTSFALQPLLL
Assay: two-hybrid; GUN1-BD (pGBKT7, bait) and COE1-AD (pGADT7, prey) co-transformed into yeast AH109; growth on SD-His-Leu-Trp-Ade plates with 40 ug/ml X-alpha-Gal, alpha-galactosidase activity assayed

binding: no binding
B1: mitochondrial transcription termination factor 4 (mTERF4)/COE1/BSM/RUG2 (protein, UniProt Q9ZT96 1-541)
chain: MKIRFCNGFTKPGFLLVHFEPPSFFAVRSRSLSDSTYGNLCNHKKRPGTGIGLTVQCAIANRRFSSRSLDSPRRERSSRSSSSSGRDRDRDKDKGRDSKSLYSRPSLLDMNKEKAANRAKVYEFLRGIGIVPDELDGLELPVTADVMKERVEFLHKLGLTIEDINNYPLVLGCSVKKNMVPVLDYLGKLGVRKSTFTEFLRRYPQVLHSSVVIDLAPVVKYLQGLDIKPSDVPRVLERYPEVLGFKLEGTMSTSVAYLVGIGVARREIGGILTRYPEILGMRVARIIKPLVEYLEVLGIPRLAAARLIEKRPHILGFELDDTVKPNVQILQDFNVRETSLPSIIAQYPEIIGIDLKPKLDTQRKLLCSAIHLNPEDLGSLIERMPQFVSLSESPMLKHIDFLTKCGFSIDQTREMVIGCPQVLALNLGIMKLSFEYFQKEMKRPLQDLVDFPAFFTYGLESTVKPRHKKIIKKGIKCSLAWMLNCSDEKFEQRMSYDTIDIEEVETDPSSFDMNTLMQPEREEESDSEYEEEEDDDDEEFA
